Test results published in patent US20060269557A1 (CITY OF HOPE, published 2006).
Positions count from the first letter of the chain named. Names and notes keep the numbering of the source. Results are given in words; binding and its absence hold for the method and conditions named. Some binding calls cover weakened binding; strength is not graded here. Where a sequence is shown, tags or fusion partners need not be part of it.

Legend:
[1] = target: T1, bacterial expressed GST-PSCA (UniProt O43653); assay: Western blot
T1 sequence (looked up): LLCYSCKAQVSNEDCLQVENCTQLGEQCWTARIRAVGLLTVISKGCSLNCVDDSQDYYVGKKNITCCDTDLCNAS

[2] = target: T2, soluble PSCA fused human IgG1 or mouse IgG2a Fc (UniProt O43653); assay: antigen binding activity, comparison of the two humanized antibodies
T2 sequence (looked up): T1 sequence (looked up)

B1: murine monoclonal antibody 1G8 (antibody, V domains shown)
VH: EVQLQQSGAELVRSGASVKLSCTASGFNIKDYYIHWVNQRPDQGLEWIGWIDPENGDTEFVPKFQGKATMTADIFSNTAYLHLSSLTSEDTAVYYCKTGGFWGQGTLVTVSA
VL: QVVLTQSPAIMSASPGEKVTMACSASSSVRFIHWYQQKSGTSPKRWIYDTSKLASGVPTRFSGSGSGTSYSLTISTMEAEDAATYYCQQWSSSPFTFGSGTKLIIK
notes: Intact murine antibody from hybridoma; also called mu1G8; parental mu1G8
[1]
  binding: binds

B2: humanized 1G8 antibody hu1G8-B (antibody, V domains shown)
VH: EVQLVESGGGLVQPGGSLRLSCAASGFNIKDYYIHWVRQAPGKGLEWVAWIDPENGDTEFVPKFQGRATISADTSKNTAYLQMNSLRAEDTAVYYCKTGGFWGQGTLVTVSS
VL: DIQLTQSPSSLSASVGDRVTITCSASSSVRFIHWYQQKPGKAPKRLIYDTSKLASGVPSRFSGSGSGTDFTLTISSLQPEDFATYYCQQWSSSPFTFGQGTKVEIK
notes: Labelled with 124I in the immunoreactivity assays; also called M6B; clone 2B3
[2]
  binding: binds

B3: humanized 1G8 antibody hu1G8-A (antibody, V domains shown)
VH: B2 VH with V61A, P62D, K63S, F64V, Q65K, A68F
VL: B2 VL
notes: also called M6A
[2]
  binding: binds
